Values of other authors as cited in patent US6787550B1, “Indole derivatives and their use for the treatment of osteoporosis amongst other applications” (Nikem Research S.r.l., priority 1999, dated 2004).
At least one structure is not confirmed: it was looked up by name or label, or the drawing left a doubt.

System: osteoclast proton pump
Settings: avian osteoclast membrane vesicles; literature background; cited from earlier work

For `COc1ccc2[nH]c([S+]([O-])Cc3ncc(C)c(OC)c3C)nc2c1` (stereo not shown) [omeprazole], which “inhibition of proton transport” value is on record?
The value was “not inhibited”.
